These results are taken from PMC10542451.

These are yes or no findings as the source states them, for the method shown. In cells and extracts the contact can be indirect. Some binding calls cover weakened binding; strength is not graded here.

The test has as its target PADI3α (mouse peptidylarginine deiminase 3, canonical isoform) (mouse) (UniProt Q9Z184). The experiment in a line: co-IP; triple transfection of PADI3α-HA, PADI3α-Flag and PADI3β-His into HEK293 cells, harvested 48 h after transfection, RIPA lysate; precipitated with anti-HA-tag magnetic beads or Dynabeads His-tag Isolation and pulldown; blotted for Flag.

B1: PADI3α (mouse peptidylarginine deiminase 3, canonical isoform) (enzyme, UniProt Q9Z184 1-664)
chain: MSLQRIVRVSLEHPTSAVCVAGVETIVDIYGAVPEGTDMFEVYGTPGVDIYVSPSMERSRERADTRRWCFNKGLEIIVIMNSPSNDLNDSHVQIAYHSSREHLPLAYAVLYLTCVDITLDCDMNCADRQDRSFVDKRQWVWGPDGYGAILLVNCDRDNVDSNAQDNCDQYVRCLQDLEDMSVMVLRTQGPEALFEDHRLILHTSSCDAERARVFHVCGPEDSCESYKCVLGPDRMSYEVPRLKGYEERFFVEGLSFPDAGFPGLISFHVTLLDDSNEDFSETPIFTDTAVFRVAPWIMTPSTLPPLEVYVCRVRNNTCFVEAVEELARKAGCKLTICPQAENRNDRWIQDEMELGYVQAPHKTLPVVFDSPRNGELQGFPYKRILGLDFGYVTREPKDSSVSGLDSFGNLEVSPPVVANGKEYPLGRILIGGNLPGSRGRRVTQVVRNFLHAQKVQPLVELFVDWLAVGHVDEFLSFVPAPDGKGFRLLLASPGACFRLFQEKQKWGHGRSLLFEGVIGDRRVQTVSINQILNNQSLINFNKFAQSCIDWNREVLKRELGLAEGDIIDIPQLFKTEKRKAVAFFPDLVNMLVLGKHLGIPKPFGPIINGRCCLEEKVRSLLEPLGLHCTFIDDFTPYHMLHGEVHCGTNVRREPFAFKWWHMVP
Turning to B1, the binding result is given as “binds”.
